The text below walks through data of paper PMC3435375.

Assay [1] deals with GFP-KRIT1B (EGFP-tagged KRIT1B, pEGFP-KRIT1B). The assay can be described thus: co-IP; HEK293 cells co-transfected with EGFP-KRIT1A or EGFP-KRIT1B and 2FLAG-Nd1-L; precipitated with anti-KRIT1, blotted with anti-FLAG.
In assay [2] the target is GST-K1BFERM, the FERM domain of KRIT1B fused to GST. Nature of the assay: pull-down; GST fusion proteins (40 ug) immobilised on glutathione-sepharose 4B beads, incubated 1 h at room temperature with HEK293 lysates overexpressing GFP- or 2FLAG-tagged proteins; washed three times with PBS; anti-GFP or anti-FLAG western blot; only the target purified.
Assay [3] concerns the target GAL4BD fusion of full-length KRIT1B (pGBKT7). Nature of the assay: two-hybrid; small-scale assay; pGADT7-Nd1-L cotransformed with pGBKT7 KRIT1 constructs into AH109; growth on medium lacking His and Ade (HIS3, ADE2) and beta-galactosidase filter assay (LACZ).
Assay [4] has as its target GAL4BD fusion of K1BFERM, the FERM domain of KRIT1B (418-697) (pGBKT7-K1BFERM). Described as above.
In assay [5] the target is GAL4BD fusion of K1BΔ207, the N-terminal truncated portion of KRIT1B (208-697). The assay is described as above.

Results are given in words; binding and its absence hold for the method and conditions named. For some assays here: Binding seen in cells or lysates may run through a third protein. Where a sequence is shown, tags or fusion partners need not be part of it.

B1: 2FLAG-Nd1-L (pCR-2FLAG-Nd1-L, murine full-length Nd1-L) (protein, UniProt Q920Q8-1 1-642)
chain: MIPNGYLMFEDENFIESSVAKLNALRKSGQFCDVRLQVCGHEMLAHRAVLACCSPYLFEIFNSDSDPHGVSHVKLDDLNPEAVEVLLNYAYTAQLKADKELVKDVYSAAKKLKMDRVKQVCGDYLLSRMDVTSCISYRNFASCMGDSRLLNKVDAYIQEHLLQISEEEEFLKLPRLKLEVMLEDNVCLPSNGKLYTKVINWVQRSIWENGDSLEELMEEVQTLYYSADHKLLDGNPLDGQAEVFGSDDDHIQFVQKKPPRENGHKQISGSSTGCLSSPNASMQSPKHEWKIVASEKTSNNTYLCLAVLDSTFCVIFLHGRNSPQSSPTSTPKLSKSLSFEMQPDELLEKPMSPMQYARSGLGTAEMNGKLIAAGGYNREECLRTVECYDPHTDHWSFLAPMRTPRARFQMAVLMGQLYVVGGSNGHSDDLSCGEMYDPNIDDWTPVPELRTNRCNAGVCALNGKLYIVGGSDPYGQKGLKNCDVFDPVTKSWTSCAPLNIRRHQSAVCELGGYLYIIGGAESWNCLNTVERYNPENNTWTLIAPMNVARRGAGVAVLDGKLFVGGGFDGSHAISCVEMYDPTRNEWKMMGNMTSPRSNAGITTVGNTIYAVGGFDGNEFLNTVEVYNPQSNEWSPYTKIFQF
For the molecule B1, the binding result in assay [1] and in assay [2] was “no binding” in each case.

B2: GAL4AD fusion of full-length Nd1-L (pGADT7-Nd1-L) (protein, UniProt Q920Q8-1 1-642)
chain: B1 chain
Take B2: the binding result in assay [3], in assay [4] and in assay [5] was “no binding” in each case.
